Assay results: publication PMC12270237
No constants are given. Whether binding was seen depends on the method and setting. For part of these data: In cells and extracts the contact can be indirect. Some entries that bind do so weakly or less than the wild type. For part of these data: Sequences can lack the tags named with a protein.

Protein sequences, listed by entry. Tags and fused reporters are not part of them. Residues count along the entry.
UniProt Q8K2B3, residues 43-664: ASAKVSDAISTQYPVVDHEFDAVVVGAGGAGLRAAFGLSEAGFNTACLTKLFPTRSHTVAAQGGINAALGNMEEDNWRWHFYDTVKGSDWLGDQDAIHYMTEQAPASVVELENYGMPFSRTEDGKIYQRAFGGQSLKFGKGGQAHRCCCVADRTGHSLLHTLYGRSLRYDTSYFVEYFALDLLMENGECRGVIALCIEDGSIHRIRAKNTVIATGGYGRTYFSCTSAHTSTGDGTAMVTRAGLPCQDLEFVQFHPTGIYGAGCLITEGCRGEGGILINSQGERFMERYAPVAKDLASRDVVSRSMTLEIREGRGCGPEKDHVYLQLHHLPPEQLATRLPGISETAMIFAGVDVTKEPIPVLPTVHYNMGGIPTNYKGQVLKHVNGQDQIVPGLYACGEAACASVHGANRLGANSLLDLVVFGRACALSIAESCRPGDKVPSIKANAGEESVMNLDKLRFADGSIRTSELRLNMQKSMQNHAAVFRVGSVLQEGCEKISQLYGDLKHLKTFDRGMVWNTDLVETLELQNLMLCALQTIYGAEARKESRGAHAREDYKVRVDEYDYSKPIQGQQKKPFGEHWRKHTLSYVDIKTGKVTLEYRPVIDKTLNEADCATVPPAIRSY

T1: MICU2-Myc (UniProt Q8IYU8)
T1 sequence: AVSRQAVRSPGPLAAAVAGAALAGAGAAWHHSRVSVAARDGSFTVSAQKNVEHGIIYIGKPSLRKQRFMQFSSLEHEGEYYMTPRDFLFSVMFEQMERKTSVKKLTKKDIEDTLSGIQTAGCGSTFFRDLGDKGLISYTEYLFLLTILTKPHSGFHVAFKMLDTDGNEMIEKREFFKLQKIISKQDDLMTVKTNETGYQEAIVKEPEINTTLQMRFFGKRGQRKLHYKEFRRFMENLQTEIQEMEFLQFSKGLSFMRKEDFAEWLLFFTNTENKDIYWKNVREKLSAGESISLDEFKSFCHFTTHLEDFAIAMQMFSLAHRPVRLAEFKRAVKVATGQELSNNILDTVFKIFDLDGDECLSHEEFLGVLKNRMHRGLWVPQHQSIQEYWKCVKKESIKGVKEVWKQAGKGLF

T2: MICU2^EFmut-Myc (UniProt Q8IYU8)
T2 sequence: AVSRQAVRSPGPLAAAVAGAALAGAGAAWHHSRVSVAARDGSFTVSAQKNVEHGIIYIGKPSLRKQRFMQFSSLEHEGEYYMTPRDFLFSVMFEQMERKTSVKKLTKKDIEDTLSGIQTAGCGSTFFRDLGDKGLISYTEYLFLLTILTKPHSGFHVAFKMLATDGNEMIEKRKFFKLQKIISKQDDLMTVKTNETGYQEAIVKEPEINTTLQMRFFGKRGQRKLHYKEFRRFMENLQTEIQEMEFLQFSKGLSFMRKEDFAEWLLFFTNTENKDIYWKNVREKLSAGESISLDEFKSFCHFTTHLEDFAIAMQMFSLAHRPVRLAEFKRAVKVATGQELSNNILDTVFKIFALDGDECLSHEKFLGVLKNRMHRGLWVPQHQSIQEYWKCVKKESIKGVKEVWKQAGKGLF

T3: MICU1-HA (knock-in mouse, endogenous locus) (mouse) (UniProt Q8VCX5)
T3 sequence: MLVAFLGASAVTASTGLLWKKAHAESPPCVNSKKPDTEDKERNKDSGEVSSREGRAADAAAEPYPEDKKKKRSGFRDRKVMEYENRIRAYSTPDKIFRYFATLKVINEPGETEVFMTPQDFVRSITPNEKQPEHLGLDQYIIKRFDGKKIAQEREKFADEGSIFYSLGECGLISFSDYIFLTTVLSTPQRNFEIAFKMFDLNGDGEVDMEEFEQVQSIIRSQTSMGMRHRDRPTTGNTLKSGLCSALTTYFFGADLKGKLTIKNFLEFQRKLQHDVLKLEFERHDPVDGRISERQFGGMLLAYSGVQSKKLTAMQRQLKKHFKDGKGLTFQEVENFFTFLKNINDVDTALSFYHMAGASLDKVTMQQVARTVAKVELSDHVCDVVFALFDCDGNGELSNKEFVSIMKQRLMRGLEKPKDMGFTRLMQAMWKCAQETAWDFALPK


Experiments:
MICU2-Myc = molecular target: T1, MICU2-Myc; experiment: co-IP; transfected HEK 293T cells (Micu1-/-, Mcu-/- or WT; some treated with ionomycin or BAPTA-AM 12 h before collection); cells treated with 0.2 mM DSP, lysed in Pierce IP lysis buffer; anti-HA, -Myc or -FLAG beads overnight at 4°C; western blot
MICU2^EFmut-Myc = molecular target: T2, MICU2^EFmut-Myc; experiment: as above
[1] = molecular target: T3, MICU1-HA (knock-in mouse, endogenous locus) (mouse); experiment: co-IP; IP of MICU1-HA from hepatic mitochondria isolated from Micu1^HA/HA and control mice; western blot
[2] = molecular target: SDHA (endogenous, mouse) (mouse (endogenous in N2a)) (UniProt Q8K2B3); experiment: native gel or EMSA; 2D gel: BN-PAGE (2% digitonin) then SDS-PAGE, western blot; mitochondria isolated from N2a cells

Binder | binding (MICU2-Myc) | binding (MICU2^EFmut-Myc) | binding [1] | binding [2]
Glycerol-3-phosphate dehydrogenase (GPD2) (protein, UniProt P43304 43-727) ADCISEPVNREPPSREAQLLTLQNTSEFDILVIGGGATGSGCALDAVTRGLKTALVERDDFSSGTSSRSTKLIHGGVRYLQKAIMKLDIEQYRMVKEALHERANLLEIAPHLSAPLPIMLPVYKWWQLPYYWVGIKLYDLVAGSNCLKSSYVLSKSRALEHFPMLQKDKLVGAIVYYDGQHNDARMNLAIALTAARYGAATANYMEVVSLLKKTDPQTGKVRVSGARCKDVLTGQEFDVRAKCVINATGPFTDSVRKMDDKDAAAICQPSAGVHIVMPGYYSPESMGLLDPATSDGRVIFFLPWQKMTIAGTTDTPTDVTHHPIPSEEDINFILNEVRNYLSCDVEVRRGDVLAAWSGIRPLVTDPKSADTQSISRNHVVDISESGLITIAGGKWTTYRSMAEDTINAAVKTHNLKAGPSRTVGLFLQGGKDWSPTLYIRLVQDYGLESEVAQHLAATYGDKAFEVAKMASVTGKRWPIVGVRLVSEFPYIEAEVKYGIKEYACTAVDMISRRTRLAFLNVQAAEEALPRIVELMGRELNWDDYKKQEQLETARKFLYYEMGYKSRSEQLTDRSEISLLPSDIDRYKKRFHKFDADQKGFITIVDVQRVLESINVQMDENTLHEILNEVDLNKNGQVELNEFLQLMSAIQKGRVSGSRLAILMKTAEENLDRRVPIPVDRSCGGL | binds | binds |  | 
MICU2 (endogenous, mouse) (protein, UniProt Q8CD10 23-432) AAGRRAVPTRGPLAAAVAGVALAGAGAAWHHGRVKAAAREGSRTVSAQKNYLGPIEKLSLRKQRFMQFSSLEHDGEYYMTPRDFLFSVMFEQVERKTLVKKLAKKDIEDVLSGIQTARCGSTFFRDLGDKGVISYTEYLFLLTILTKPHSGFHVAFKMLDVDGNEMIERKEFVKLQKIISKQDGFKTVKTNETEYQDPTVKEPGVNTTLQVRFFGKRGEKKLHYKEFRRFMENLQTEVQEMEFLQFSKGLNFMRKEDFAEWLLFFTNTENKDIYWRNVREKLSVGESISLDEFKSFCHFTTHLEDFAIAMQMFSLAHRPVRLAEFKRAVKVATGQELSDNLLDTVFKIFDLDGDECLSHGEFLGVLKNRMHRGLWVSQQQSVQEYWKCVKKESIKGVKEAWRQQAGKGPF |  |  | binds | 
SDHC (endogenous, mouse) (protein, UniProt Q9CZB0 30-169) LGTTAKEEMERFWKKNTSSNRPLSPHLTIYKWSLPMALSVCHRGSGIALSGGVSLFGLSALLLPGNFESYLMFVKSLCLGPTLIYSAKFVLVFPLMYHSLNGIRHLLWDLGKGLAIPQVWLSGVAVVVLAVLSSGGLAAL |  |  | binds | 
GPD2 (endogenous, mouse) (protein, UniProt Q64521 43-727) AGYLTEPVNREPPSREAQLMTLKNTPEFDILVIGGGATGCGCALDAVTRGLKTALVERDDFSSGTSSRSTKLIHGGVRYLQKAIMNLDVEQYRMVKEALHERANLLEIAPHLSAPLPIMLPLYKWWQLPYYWVGIKMYDLVAGSQCLKSSYVLSKSRALEHFPMLQKDKLVGAIVYYDGQHNDARMNLAIALTAARYGAATANYMEVVSLLKKTDPETGKERVSGARCKDVLTGQEFDVRAKCVINASGPFTDSVRKMDDKNVVPICQPSAGVHIVMPGYYSPENMGLLDPATSDGRVIFFLPWEKMTIAGTTDTPTDVTHHPIPSEEDINFILNEVRNYLSSDVEVRRGDVLAAWSGIRPLVTDPKSADTQSISRNHVVDISDSGLITIAGGKWTTYRSMAEDTVDAAVKFHNLNAGPSRTVGLFLQGGKDWSPTLYIRLVQDYGLESEVAQHLAKTYGDKAFEVAKMASVTGKRWPVVGVRLVSEFPYIEAEVKYGIKEYACTAVDMISRRTRLAFLNVQAAEEALPRIVELMGRELNWSELRKQEELETATRFLYYEMGYKSRTEQLTDSTEISLLPSDIDRYKKRFHKFDEDEKGFITIVDVQRVLESINVQMDENTLHEILCEVDLNKNGQVELHEFLQLMSAVQKGRVSGSRLAILMKTAEENLDRRVPIPVDRSCGGL |  |  | binds | binds
